Laboratory results published in publication PMC8956508.
Results are given in words; binding and its absence hold for the method and conditions named. In cells and extracts the contact can be indirect. Some entries that bind do so weakly or less than the wild type.

The chains behind the UniProt entries cited, without tags or fusion partners.
UniProt P15884: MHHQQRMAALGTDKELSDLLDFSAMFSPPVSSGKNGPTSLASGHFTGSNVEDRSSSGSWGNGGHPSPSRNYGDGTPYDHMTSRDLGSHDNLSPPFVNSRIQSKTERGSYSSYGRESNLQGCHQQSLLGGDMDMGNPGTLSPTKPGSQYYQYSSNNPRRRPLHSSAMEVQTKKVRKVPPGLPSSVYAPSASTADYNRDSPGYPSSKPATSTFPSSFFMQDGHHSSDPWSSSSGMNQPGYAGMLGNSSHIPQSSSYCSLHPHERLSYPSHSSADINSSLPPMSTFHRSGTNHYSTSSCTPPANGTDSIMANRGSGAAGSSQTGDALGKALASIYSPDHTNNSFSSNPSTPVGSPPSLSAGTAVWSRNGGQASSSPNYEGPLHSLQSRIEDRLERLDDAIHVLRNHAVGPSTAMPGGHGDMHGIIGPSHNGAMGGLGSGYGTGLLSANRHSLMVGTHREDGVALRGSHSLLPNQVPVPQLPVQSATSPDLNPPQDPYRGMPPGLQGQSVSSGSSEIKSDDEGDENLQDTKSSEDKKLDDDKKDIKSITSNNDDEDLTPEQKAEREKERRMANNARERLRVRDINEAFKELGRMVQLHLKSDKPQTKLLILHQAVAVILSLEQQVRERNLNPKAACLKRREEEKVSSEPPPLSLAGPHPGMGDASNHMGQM

What was measured:
[1] = target: T1, DUSP6 (human (endogenous in HepG2)) (UniProt Q16828); assay: co-IP; DUSP6 antibody; PBLD-upregulated and control HepG2 cells after transfection with SKP2 plasmids; western blot of SKP2, DUSP6 and PBLD
T1 sequence: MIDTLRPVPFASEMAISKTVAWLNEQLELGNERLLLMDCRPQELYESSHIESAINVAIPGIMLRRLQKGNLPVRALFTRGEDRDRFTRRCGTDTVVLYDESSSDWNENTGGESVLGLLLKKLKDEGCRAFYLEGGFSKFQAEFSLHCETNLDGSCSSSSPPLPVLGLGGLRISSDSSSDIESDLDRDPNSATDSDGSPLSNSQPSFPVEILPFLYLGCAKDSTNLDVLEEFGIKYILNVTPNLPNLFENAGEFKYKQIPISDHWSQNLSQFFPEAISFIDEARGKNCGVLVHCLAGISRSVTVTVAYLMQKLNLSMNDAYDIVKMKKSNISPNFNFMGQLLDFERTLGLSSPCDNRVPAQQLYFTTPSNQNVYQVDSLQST

[2] = target: T1, DUSP6 (human (endogenous in HepG2)); assay: co-IP; HepG2 cells lysed in cold NP-40 with protease and phosphatase inhibitors; antibody (2 ug) on protein A/G magnetic beads, incubated overnight at 4 °C; western blot; anti-rabbit IgG as negative control
[3] = target: TCF4 (human (endogenous in HepG2)) (UniProt P15884); assay: as above

Measured: binding

B1: phenazine biosynthesis-like domain-containing protein (PBLD) (protein, UniProt P30039 1-288)
chain: MKLPIFIADAFTARAFRGNPAAVCLLENELDEDMHQKIAREMNLSETAFIRKLHPTDNFAQSSCFGLRWFTPASEVPLCGHATLASAAVLFHKIKNMNSTLTFVTLSGELRARRAEDGIVLDLPLYPAHPQDFHEVEDLIKTAIGNTLVQDICYSPDTQKLLVRLSDVYNRSFLENLKVNTENLLQVENTGKVKGLILTLKGEPGGQTQAFDFYSRYFAPWVGVAEDPVTGSAHAVLSSYWSQHLGKKEMHAFQCSHRGGELGISLRPDGRVDIRGGAAVVLEGTLTA
binds: [1] | [2] | [3]
